Measured values: PMC10778189
These are yes or no findings as the source states them, for the method shown. Some entries that bind do so weakly or less than the wild type.

Sequences of proteins named here, by UniProt entry; tags and fusion partners are left off. Residues count along the entry.
UniProt P62812, residues 28-455: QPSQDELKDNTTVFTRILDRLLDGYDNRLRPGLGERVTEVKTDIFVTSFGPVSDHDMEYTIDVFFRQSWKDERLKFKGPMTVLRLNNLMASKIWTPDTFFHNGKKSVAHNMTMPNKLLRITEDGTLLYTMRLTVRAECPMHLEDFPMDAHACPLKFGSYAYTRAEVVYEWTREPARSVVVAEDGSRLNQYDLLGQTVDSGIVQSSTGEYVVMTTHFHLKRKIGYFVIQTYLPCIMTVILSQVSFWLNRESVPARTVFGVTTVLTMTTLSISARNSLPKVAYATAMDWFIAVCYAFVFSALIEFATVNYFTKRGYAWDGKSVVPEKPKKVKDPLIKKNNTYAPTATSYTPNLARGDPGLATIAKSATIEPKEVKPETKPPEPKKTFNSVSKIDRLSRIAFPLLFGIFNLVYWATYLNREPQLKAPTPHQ
UniProt P63137, residues 26-512: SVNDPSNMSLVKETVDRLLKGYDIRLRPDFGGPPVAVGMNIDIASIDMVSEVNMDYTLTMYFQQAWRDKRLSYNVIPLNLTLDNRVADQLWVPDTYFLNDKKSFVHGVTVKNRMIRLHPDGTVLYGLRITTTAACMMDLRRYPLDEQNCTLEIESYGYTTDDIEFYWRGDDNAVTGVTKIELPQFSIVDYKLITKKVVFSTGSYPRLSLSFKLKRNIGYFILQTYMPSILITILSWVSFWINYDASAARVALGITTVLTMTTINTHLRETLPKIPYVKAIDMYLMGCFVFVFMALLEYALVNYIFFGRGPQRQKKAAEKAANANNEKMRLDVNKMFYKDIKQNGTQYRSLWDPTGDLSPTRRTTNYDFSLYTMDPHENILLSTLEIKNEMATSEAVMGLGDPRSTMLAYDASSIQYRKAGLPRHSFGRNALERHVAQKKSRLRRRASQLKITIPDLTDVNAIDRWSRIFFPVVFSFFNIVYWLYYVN
UniProt Q69ZK9, residues 15-836: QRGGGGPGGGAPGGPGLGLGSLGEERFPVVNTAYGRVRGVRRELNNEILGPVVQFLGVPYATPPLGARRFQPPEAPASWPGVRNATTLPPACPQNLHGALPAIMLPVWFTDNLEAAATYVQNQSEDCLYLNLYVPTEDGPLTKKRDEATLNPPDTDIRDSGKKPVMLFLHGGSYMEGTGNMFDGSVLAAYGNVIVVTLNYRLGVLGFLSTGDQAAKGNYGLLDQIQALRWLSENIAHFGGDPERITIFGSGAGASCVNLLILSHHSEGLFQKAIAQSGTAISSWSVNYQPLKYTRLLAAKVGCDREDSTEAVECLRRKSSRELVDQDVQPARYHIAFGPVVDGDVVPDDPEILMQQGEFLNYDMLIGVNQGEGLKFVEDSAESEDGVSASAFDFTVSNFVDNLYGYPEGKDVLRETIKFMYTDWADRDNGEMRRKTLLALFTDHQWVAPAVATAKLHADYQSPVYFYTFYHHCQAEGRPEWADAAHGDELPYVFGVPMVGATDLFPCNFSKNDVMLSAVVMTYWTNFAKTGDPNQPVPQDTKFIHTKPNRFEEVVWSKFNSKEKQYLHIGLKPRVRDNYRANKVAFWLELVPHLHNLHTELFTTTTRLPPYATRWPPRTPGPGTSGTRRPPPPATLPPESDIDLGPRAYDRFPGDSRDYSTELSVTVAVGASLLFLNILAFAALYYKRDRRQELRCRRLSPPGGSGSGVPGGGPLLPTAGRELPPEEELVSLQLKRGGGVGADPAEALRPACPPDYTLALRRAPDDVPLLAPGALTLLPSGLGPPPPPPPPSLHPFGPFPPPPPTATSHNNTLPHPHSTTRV

Assays:
[1] = molecular target: GABAA receptor α1 subunit (Gabra1) (mouse (endogenous in hippocampus and olfactory bulb)) (UniProt P62812); experiment: native gel or EMSA; BN-PAGE of native hippocampal and olfactory bulb lysates, transferred to PVDF and immuno-stained for α1, β2/3 and Nlgn2; bands at 680 kDa and 450 kDa
[2] = molecular target: T1, GABAA receptor α5 subunit (Gabra5) (mouse (endogenous in hippocampus and olfactory bulb)) (UniProt Q8BHJ7); experiment: native gel or EMSA; BN-PAGE (NativePAGE 4-16% Bis-Tris, 4 °C) of 1% MNG extracts of mouse hippocampus and olfactory bulb; each lane cut into 50 pieces and read by mass spectrometry; co-migration of abundance profiles
T1 sequence: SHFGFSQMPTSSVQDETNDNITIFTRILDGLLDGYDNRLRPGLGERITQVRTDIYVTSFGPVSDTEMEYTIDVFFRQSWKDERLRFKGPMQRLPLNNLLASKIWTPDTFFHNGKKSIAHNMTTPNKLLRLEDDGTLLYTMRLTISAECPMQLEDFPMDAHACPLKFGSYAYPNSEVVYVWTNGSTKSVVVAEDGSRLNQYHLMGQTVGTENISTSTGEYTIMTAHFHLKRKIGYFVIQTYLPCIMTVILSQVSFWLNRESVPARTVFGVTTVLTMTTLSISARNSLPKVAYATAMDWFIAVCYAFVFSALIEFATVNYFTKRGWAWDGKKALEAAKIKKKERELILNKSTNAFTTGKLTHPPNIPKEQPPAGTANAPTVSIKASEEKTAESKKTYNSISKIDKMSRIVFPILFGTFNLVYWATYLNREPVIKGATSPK

[3] = molecular target: GABAA receptor β2 subunit (mouse (endogenous in hippocampus and olfactory bulb)) (UniProt P63137); experiment: as above
[4] = molecular target: T2, GABAA receptor γ2 subunit (mouse (endogenous in hippocampus and olfactory bulb)) (UniProt P22723); experiment: as above
T2 sequence: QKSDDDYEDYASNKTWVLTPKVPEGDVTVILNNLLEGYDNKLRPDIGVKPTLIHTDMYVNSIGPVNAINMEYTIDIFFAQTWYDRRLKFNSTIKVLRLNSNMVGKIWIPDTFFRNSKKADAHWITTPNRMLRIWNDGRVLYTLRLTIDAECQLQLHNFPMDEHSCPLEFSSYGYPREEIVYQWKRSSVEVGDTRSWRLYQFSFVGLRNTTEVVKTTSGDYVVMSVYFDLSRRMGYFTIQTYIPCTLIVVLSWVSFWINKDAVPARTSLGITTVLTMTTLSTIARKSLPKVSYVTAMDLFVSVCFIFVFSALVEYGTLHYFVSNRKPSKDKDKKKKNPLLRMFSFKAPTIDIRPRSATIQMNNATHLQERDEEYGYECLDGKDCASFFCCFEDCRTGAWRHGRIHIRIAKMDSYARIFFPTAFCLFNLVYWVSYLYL

binding [1]: binds | binding [2]: binds | binding [3]: binds | binding [4]: binds
Substance: Neuroligin 2 (Nlgn2) (from UniProt Q69ZK9 15-836)
